The test has as its target Flag-Smurf1 (UniProt Q9HCE7). Description: co-IP; MDA-MB-231 cells transfected with Flag-Smurf1 and Myc-Smad3; MG132 (20 µM) for 8 h before harvest; HEPES lysis buffer (20 mM HEPES pH 7.2, 50 mM NaCl, 0.5% Triton X-100, 1 mM NaF, 1 mM dithiothreitol); antibody 3 h at 4 °C, protein A/G-plus agarose; western blot (anti-Myc-HRP to detect Smad3). (In general: In western blotting, separated proteins are transferred to a membrane and probed.)

Sequences of proteins named here, by UniProt entry; tags and fusion partners are left off. A change or cut given only in a name is not applied to a line headed by its entry.
UniProt Q9HCE7: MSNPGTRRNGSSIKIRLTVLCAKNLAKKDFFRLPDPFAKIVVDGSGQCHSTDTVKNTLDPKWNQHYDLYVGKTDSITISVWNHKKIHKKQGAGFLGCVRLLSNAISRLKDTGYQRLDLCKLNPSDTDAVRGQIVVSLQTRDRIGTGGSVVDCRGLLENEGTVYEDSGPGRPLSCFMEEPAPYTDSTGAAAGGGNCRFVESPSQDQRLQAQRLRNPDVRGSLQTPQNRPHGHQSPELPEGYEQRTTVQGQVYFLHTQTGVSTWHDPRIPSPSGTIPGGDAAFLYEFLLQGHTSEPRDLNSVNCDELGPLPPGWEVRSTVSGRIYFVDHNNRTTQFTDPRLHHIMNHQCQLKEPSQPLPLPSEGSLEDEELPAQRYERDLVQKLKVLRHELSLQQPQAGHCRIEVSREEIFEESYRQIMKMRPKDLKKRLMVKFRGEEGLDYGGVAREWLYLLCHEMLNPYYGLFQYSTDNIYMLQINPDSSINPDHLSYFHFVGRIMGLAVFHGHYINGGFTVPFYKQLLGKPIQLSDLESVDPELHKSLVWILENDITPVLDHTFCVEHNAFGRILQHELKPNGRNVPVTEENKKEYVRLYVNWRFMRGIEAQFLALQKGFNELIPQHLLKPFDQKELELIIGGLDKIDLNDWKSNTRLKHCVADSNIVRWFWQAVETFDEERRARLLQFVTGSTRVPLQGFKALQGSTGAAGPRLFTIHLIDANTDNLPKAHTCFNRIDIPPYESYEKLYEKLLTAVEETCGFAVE
UniProt P84022: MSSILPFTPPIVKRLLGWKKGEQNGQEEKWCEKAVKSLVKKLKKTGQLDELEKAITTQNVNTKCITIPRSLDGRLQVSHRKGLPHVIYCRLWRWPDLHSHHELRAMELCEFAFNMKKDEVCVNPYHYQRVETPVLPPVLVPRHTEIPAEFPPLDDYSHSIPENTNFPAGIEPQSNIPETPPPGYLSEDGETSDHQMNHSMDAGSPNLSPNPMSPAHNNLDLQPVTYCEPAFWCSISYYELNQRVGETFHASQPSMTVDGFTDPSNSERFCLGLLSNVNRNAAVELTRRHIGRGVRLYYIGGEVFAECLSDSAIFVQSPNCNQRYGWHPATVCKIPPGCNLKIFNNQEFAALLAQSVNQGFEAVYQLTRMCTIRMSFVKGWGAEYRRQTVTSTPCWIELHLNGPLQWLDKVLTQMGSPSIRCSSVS

Results are given in words; binding and its absence hold for the method and conditions named. Binding seen in cells or lysates may run through a third protein. Binding calls can cover weak binding; strength is not graded here.

As to Myc-Smad3 (from UniProt P84022 1-425), the binding result is “binds”.

For the origin of these results see publication PMC5570908.
